Measurements as given in PubChem BioAssay AID218 (DTP/NCI, 2004).
The list shows only some results of the screen, not a fair sample: it gathers some chemical classes. Other doses and runs of a compound may be missing. T/C gives the treated animals as a percentage of the vehicle group. Some T/C values are marked as having no survivor count here; that says nothing about deaths at the dose. Schedules are NCI's codes, read here as Q, the interval in days (D) or hours (H), X, the number of doses.

System: C57BL/6 mice, Adenocarcinoma 755 sc, tumor weight T/C
Assay: NCI In Vivo Anticancer Drug Screen. Data for tumor model Adenocarcinoma 755 (subcutaneous) in C57BL/6 mice
Conditions: T/C endpoint: mean tumor weight, schedule: Q01DX011 (ip), vehicle: saline, evaluation day not shown, higher T/C = larger tumour
Procedure: The antitumor activity of compounds was measured in mice bearing transplantable tumors. Survival or tumor size were measured and the results are expressed as the measurement made in the treated group (T) divided by the measurement made in the vehicle treated control group (C). The tumor model used in this assay is Adenocarcinoma 755 (subcutaneous) in C57BL/6 mice

| SMILES | T/C (dose: 10.0 mg/kg/injection) | T/C (dose: 20.0 mg/kg/injection) | T/C (dose: 40.0 mg/kg/injection) | T/C (dose: 0.16 mg/kg/injection) | T/C (dose: 0.31 mg/kg/injection) | T/C (dose: 0.63 mg/kg/injection) | T/C (dose: 1.25 mg/kg/injection) | T/C (dose: 19.0 micrograms/kg/injection) | T/C (dose: 39.0 micrograms/kg/injection) | T/C (dose: 78.0 micrograms/kg/injection) | T/C (dose: 156.0 micrograms/kg/injection) |
| --- | --- | --- | --- | --- | --- | --- | --- | --- | --- | --- | --- |
| CCCCOc1ccc(N(CCCl)CCCl)cc1 | 56 % of control [survivor count not shown] | 31 % of control [survivor count not shown] | 8 % of control [survivor count not shown] |  |  |  |  |  |  |  |  |
| O=P(Cl)(Cl)N(CCF)CCF |  |  |  | 25 % of control [survivor count not shown] | 63 % of control [survivor count not shown] | 49 % of control [survivor count not shown] | 55 % of control [survivor count not shown] | 56 % of control [survivor count not shown] | 94 % of control [survivor count not shown] | 55 % of control [survivor count not shown] | 61 % of control [survivor count not shown] |
